Measured values reported in article PMC5857993.
These are yes or no findings as the source states them, for the method shown. For some of these results: In cells and extracts the contact can be indirect. Some binding calls cover weakened binding; strength is not graded here.

The chains behind the UniProt entries cited, without tags or fusion partners.
UniProt O14733: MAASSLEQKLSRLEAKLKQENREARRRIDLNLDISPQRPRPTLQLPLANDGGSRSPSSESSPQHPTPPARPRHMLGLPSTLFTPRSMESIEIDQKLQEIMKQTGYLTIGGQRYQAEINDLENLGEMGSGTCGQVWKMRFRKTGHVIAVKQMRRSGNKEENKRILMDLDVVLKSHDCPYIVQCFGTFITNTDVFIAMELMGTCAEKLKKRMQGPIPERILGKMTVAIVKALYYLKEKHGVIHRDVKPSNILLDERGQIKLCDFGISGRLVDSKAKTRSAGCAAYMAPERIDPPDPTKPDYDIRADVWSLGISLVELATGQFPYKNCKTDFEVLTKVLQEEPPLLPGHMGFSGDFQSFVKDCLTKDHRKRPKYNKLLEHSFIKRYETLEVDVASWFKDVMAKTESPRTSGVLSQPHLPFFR
UniProt Q9H4L4: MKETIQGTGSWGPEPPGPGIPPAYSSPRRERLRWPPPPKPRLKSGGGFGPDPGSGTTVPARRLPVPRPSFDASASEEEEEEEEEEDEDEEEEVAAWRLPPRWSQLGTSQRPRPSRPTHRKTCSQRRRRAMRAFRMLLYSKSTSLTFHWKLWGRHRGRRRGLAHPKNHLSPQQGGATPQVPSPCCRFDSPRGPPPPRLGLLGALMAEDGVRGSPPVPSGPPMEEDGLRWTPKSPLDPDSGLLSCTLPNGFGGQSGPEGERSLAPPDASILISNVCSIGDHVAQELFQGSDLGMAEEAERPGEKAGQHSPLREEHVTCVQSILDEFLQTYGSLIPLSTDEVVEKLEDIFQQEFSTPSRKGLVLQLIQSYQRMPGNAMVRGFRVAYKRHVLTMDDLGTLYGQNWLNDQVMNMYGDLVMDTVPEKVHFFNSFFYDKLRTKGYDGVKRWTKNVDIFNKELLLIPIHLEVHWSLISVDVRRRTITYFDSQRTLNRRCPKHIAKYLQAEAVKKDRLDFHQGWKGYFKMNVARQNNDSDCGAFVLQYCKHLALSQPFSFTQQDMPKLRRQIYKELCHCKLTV
UniProt P45983: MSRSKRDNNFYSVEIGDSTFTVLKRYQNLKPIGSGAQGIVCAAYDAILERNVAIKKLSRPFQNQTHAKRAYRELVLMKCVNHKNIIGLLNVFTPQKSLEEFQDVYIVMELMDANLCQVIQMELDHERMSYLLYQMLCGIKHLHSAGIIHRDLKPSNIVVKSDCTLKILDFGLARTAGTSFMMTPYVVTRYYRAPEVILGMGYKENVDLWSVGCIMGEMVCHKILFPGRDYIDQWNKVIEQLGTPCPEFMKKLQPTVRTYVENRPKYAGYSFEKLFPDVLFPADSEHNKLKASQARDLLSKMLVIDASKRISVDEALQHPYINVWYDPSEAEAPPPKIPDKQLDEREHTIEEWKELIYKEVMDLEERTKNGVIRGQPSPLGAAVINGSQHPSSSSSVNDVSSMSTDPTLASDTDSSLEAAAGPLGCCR

Legend:
FLAG–MKK7 = FLAG–MKK7 (UniProt O14733); experiment: co-IP; HEK293T cells co-transfected for 48 h; FLAG-M2 beads for immunoprecipitation, immunoblot with anti-MKK7 or anti-GFP; lysis buffer 50 mM Tris-HCl pH 7.4, 150 mM NaCl, 1 mM EDTA, 1% Triton X-100; overnight at 4 °C
FLAG–SENP3 = FLAG–SENP3 (UniProt Q9H4L4); experiment: as above
[1] = biological target: endogenous MKK7 (human (endogenous in TLR4 HEK293)) (UniProt O14733); experiment: co-IP; endogenous proteins in TLR4 293 cells, with or without LPS (100 ng/ml) for 30 min; RIPA buffer, specific antibodies and Protein A/G-agarose beads, 4 °C
GST–MKK7 = GST–MKK7 (UniProt O14733); experiment: pull-down; GST–MKK7 or GST–MKK7–SUMO3 on glutathione-Sepharose incubated with 1 μg JNK1 overnight at 4 °C; 50 mM Tris pH 7.4, 150 mM NaCl, 1 mM EDTA, 1% Triton X-100; JNK1 detected by immunoblot; both purified

## GFP–SENP3 (from UniProt Q9H4L4 1-574) (enzyme)
FLAG–MKK7
  binding: binds

## MKK7 (from plasmid pCDNA–MKK7) (from UniProt O14733 1-419) (enzyme)
FLAG–SENP3
  binding: binds

## endogenous SENP3 (from UniProt Q9H4L4 1-574) (enzyme)
[1]
  binding: binds

## unactivated recombinant human JNK1 (from UniProt P45983 1-427) (enzyme)
GST–MKK7
  binding: binds
